Data taken from ChEMBL document CHEMBL3988442, “University of Dundee, Small-Polar-MMV Screening Library” (2021).

By UniProt entry, the sequences of proteins in these tests, tags left out. Residues count along the entry.
UniProt P9WPC5, whole entry: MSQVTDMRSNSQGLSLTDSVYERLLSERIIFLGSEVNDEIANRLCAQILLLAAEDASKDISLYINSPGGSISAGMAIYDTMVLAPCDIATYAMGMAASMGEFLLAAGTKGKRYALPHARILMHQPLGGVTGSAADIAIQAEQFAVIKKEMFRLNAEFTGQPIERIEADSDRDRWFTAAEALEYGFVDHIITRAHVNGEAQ
UniProt P9WPC3, whole entry partner: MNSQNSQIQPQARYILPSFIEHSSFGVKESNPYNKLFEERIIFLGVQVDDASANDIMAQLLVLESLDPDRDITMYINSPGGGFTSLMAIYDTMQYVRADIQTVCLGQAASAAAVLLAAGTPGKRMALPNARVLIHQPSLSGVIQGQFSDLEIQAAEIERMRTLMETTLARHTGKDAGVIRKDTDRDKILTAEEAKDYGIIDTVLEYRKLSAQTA
UniProt P9WFT3, whole entry: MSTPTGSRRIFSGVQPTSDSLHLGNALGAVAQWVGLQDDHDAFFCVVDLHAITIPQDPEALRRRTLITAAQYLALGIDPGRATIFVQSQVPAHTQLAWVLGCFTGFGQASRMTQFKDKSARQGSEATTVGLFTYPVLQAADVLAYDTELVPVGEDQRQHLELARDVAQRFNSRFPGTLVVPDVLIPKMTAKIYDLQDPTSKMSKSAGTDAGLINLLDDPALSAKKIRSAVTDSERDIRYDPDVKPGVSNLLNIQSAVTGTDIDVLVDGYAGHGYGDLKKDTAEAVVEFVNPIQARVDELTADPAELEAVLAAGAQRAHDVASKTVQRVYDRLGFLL
UniProt I6X8D2, whole entry: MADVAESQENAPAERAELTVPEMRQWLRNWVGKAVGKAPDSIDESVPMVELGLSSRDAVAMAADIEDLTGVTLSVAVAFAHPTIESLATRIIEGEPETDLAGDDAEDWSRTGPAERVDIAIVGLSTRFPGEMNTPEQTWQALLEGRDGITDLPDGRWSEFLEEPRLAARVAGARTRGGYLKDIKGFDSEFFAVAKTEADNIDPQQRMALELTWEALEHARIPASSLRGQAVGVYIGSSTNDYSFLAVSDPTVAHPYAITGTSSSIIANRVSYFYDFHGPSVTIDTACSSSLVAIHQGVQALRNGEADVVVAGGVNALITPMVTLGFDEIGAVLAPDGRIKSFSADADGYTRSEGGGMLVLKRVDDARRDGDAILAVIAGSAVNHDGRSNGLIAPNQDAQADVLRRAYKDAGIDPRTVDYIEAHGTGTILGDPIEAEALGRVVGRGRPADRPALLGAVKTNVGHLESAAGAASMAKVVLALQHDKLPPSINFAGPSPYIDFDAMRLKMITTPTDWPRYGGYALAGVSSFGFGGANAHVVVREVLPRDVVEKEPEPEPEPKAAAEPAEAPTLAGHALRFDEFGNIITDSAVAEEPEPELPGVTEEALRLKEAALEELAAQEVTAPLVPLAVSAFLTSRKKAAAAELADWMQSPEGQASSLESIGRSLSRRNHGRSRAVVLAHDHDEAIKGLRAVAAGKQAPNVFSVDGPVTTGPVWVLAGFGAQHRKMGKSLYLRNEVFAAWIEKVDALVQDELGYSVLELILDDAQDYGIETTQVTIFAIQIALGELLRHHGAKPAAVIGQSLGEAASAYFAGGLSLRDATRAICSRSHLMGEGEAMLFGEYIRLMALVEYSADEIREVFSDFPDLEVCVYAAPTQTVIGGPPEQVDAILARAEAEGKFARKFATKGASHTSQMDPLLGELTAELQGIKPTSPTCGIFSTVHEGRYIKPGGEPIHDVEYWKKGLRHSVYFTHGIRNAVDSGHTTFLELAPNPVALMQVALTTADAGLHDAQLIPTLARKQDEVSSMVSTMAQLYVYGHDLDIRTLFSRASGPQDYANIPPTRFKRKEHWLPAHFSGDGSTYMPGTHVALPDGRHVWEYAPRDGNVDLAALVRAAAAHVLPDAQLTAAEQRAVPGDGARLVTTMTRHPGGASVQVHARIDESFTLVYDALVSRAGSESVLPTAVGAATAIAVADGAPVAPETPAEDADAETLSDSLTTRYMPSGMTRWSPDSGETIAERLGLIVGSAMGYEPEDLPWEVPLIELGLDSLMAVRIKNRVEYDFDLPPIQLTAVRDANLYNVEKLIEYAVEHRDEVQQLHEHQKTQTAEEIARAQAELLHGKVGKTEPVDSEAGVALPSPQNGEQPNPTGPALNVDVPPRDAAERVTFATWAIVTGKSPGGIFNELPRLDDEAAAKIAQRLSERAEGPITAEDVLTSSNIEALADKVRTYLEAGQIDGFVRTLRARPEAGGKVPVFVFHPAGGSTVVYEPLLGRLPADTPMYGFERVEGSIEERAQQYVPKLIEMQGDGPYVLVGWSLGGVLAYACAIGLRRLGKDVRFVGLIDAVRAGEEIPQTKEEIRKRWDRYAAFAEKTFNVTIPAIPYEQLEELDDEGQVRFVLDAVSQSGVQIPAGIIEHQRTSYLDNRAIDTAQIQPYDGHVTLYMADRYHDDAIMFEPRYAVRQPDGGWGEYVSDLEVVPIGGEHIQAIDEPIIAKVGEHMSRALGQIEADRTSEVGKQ
UniProt Q8IDJ8, 1-583: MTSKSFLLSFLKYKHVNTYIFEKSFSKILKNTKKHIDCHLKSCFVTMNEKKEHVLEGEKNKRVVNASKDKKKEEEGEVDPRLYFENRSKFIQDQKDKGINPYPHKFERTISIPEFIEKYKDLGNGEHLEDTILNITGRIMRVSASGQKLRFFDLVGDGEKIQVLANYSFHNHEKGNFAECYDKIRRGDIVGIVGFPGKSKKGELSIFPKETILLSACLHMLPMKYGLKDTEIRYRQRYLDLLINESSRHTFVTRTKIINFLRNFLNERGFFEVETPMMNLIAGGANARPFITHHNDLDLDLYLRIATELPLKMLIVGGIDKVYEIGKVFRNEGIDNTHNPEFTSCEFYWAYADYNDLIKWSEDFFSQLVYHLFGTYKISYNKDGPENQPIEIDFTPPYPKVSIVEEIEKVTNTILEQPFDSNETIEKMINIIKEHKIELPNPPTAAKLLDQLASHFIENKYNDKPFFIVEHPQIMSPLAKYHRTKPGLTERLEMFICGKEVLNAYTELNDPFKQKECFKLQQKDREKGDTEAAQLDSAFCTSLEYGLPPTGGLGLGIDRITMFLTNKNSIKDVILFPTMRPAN

ClpP1P2: 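Protease assay of ClpP1P2, read by the AMC dye that it sets free. Target: ClpP1P2, Mycobacterium tuberculosis (UniProt P9WPC5 and UniProt P9WPC3). Compounds at 50 µM. Direction is inferred from only a few compounds that gave an IC50; most scored high, so higher reads as stronger inhibition. Most other retested compounds had strongly negative values. Size under these conditions: about 69,000 compounds, about 10 of them at 50% or above in at least one test.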
MtTrpRS: 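Enzyme assay of tryptophanyl-tRNA synthetase; the read-out is not stated. Target: Tryptophan-tRNA ligase, Mycobacterium tuberculosis (UniProt P9WFT3). Tested at 10 µM. Higher most likely means stronger inhibition; the record gives no direction and few retests gave an IC50. About 65,000 compounds were tested under these conditions; 0.098% (about 64) showed 50% or more at least once.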
Pks13 thioesterase: 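Polyketide synthase Pks13, Mycobacterium tuberculosis (UniProt I6X8D2). Enzyme assay of the thioesterase domain of polyketide synthase 13; the read-out is not stated. Concentration: 30 µM. The record gives no direction; the compounds picked for IC50 retests had high values, so higher reads as stronger inhibition. Size under these conditions: about 67,000 compounds, about 300 of them at 50% or above in at least one test.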
PfKRS1: 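Lysine-tRNA ligase, Plasmodium falciparum 3D7 (UniProt Q8IDJ8). Enzyme assay of the cytosolic lysyl-tRNA synthetase in 384-well plates, read by luminescence. Concentration: 30 µM. Higher reads as stronger inhibition, judged from the few compounds that gave an IC50. Of about 69,000 compounds tested this way, about 49 (0.071%) reached 50% or more in at least one test.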

The filed quantity is “Percent Effect” (%).
How 0% and 100% were set is not recorded. Most values in the screen are low, and negative values occur.
This is an unselected part of the compounds tested.

CNC(=O)[C@@]12CCCN(c3ncccn3)[C@@H]1CN(c1ncc(F)cn1)C2 gave ClpP1P2: -0.03589%; MtTrpRS: 1.036%; Pks13 thioesterase: -26.36%; PfKRS1: -0.9672%.
COCc1ccc(C(=O)N2CCC(Oc3ccccc3OC)CC2)s1 gave ClpP1P2: 5.147%; MtTrpRS: -5.982%; Pks13 thioesterase: 21.17%; PfKRS1: 2.271%.
CCOc1ccc(C2CCCN2Cc2nnnn2C2CC2)cc1 (centres undefined) gave ClpP1P2: -28.28%; MtTrpRS: -1.273%; Pks13 thioesterase: -10.81%; PfKRS1: 4.15%.
CCCNC(=O)c1cncc(CC2CCCN(C)C2)c1 (centres undefined) gave ClpP1P2: -7.981%; Pks13 thioesterase: -3.984%; PfKRS1: 2.533%.
CC(C)(CNC(=O)C1CCCN(C(N)=O)C1)c1cccc(Cl)c1 (centres undefined) gave ClpP1P2: 4.291%; MtTrpRS: 11.25%; Pks13 thioesterase: 37.19%; PfKRS1: -6.398%.
CC(=O)NCCC1CCCCN1C(=O)c1cccc(CCC(C)(C)O)c1 (centres undefined) gave ClpP1P2: 13.05%; MtTrpRS: 3.484%; Pks13 thioesterase: -5.931%; PfKRS1: 0.8682%.
O=C(C1CCN(S(=O)(=O)N2CCCC2)CC1)N1CCC2(CC1)OCCO2 gave ClpP1P2: 4.708%; MtTrpRS: -1.027%; Pks13 thioesterase: -5.208%; PfKRS1: 3.756%.
CCC[C@@H]1CN(c2ncnc3sccc23)C[C@H]1C(=O)O gave ClpP1P2: 3.268%; MtTrpRS: -3.199%; Pks13 thioesterase: -33.23%; PfKRS1: 3.154%.
c1cc(-c2nccn2CCc2nc3c(s2)CCC3)ccn1 gave ClpP1P2: -6.255%; MtTrpRS: 14.72%; Pks13 thioesterase: 7.468%; PfKRS1: 3.73%.
CCNC(=O)[C@@H]1C[C@H](NC(=O)c2cc(=O)[nH]c3ccc(C)cc23)CN1C gave ClpP1P2: -68.16%; MtTrpRS: -2.976%; Pks13 thioesterase: 15.36%; PfKRS1: 2.329%.
Cc1nc(C2CCCN2C(=O)CN(C)Cc2ccccc2)no1 (centres undefined) gave ClpP1P2: 5.341%; MtTrpRS: -1.282%; Pks13 thioesterase: -12.71%; PfKRS1: 1.037%.
Cc1ncsc1C(=O)NC1CCN(Cc2cccc3c2OCCO3)CC1 gave ClpP1P2: 7.515%; MtTrpRS: -3.195%; Pks13 thioesterase: -28.07%; PfKRS1: 0.8274%.
COc1c(CNCc2cccc(Cn3ccnc3)c2)c(C)nn1C gave ClpP1P2: 10.28%; MtTrpRS: -0.8607%; Pks13 thioesterase: -31.64%; PfKRS1: 6.984%.
Cc1cnn(CC2CCCN2C(=O)Cc2c(C)noc2C)c1 (centres undefined) gave ClpP1P2: -5.361%; MtTrpRS: -0.1696%; Pks13 thioesterase: 4.381%; PfKRS1: 3.187%.
Cn1cnnc1C1CCCN(C(=O)c2cnc3ccccc3n2)C1 (centres undefined) gave ClpP1P2: 2.911%; MtTrpRS: -2.267%; Pks13 thioesterase: -10.35%; PfKRS1: 6.501%.
COCC(C)(O)CNC(=O)Nc1cccc(OC)c1OC (centres undefined) gave ClpP1P2: -4.202%; MtTrpRS: -4.483%; Pks13 thioesterase: 0.1552%; PfKRS1: 10.11%.
O=S(=O)(c1cn[nH]c1)N1CCCC1c1cc[nH]n1 (centres undefined) gave ClpP1P2: -10.62%; MtTrpRS: -3.608%; Pks13 thioesterase: -6.237%; PfKRS1: 1.565%.
O=C(CC1CCCC1)NCCn1nc2ccccn2c1=O gave ClpP1P2: -4.966%; MtTrpRS: -4.545%; Pks13 thioesterase: -2.307%; PfKRS1: 0.3507%.
CCc1nn(C)c(Cl)c1CN1CCCC2(CC1)CN(C)C(=O)O2 (centres undefined) gave ClpP1P2: 12.85%; MtTrpRS: -2.907%; Pks13 thioesterase: 21.89%; PfKRS1: -1.453%.
CCOc1ccc(C(=O)Nc2c(C)nc3ccccn3c2=O)cc1 gave ClpP1P2: -17.32%; MtTrpRS: -0.7498%; Pks13 thioesterase: 17.04%; PfKRS1: 2.032%.
COc1ccc(S(=O)(=O)N2C[C@@H]3CN(C)CCO[C@@H]3C2)cc1 gave ClpP1P2: 0.8497%; Pks13 thioesterase: 5.468%; PfKRS1: 4.896%.
O=C(c1n[nH]c2c1CCN(Cc1nccs1)C2)N1CCCC1 gave ClpP1P2: -5.84%; MtTrpRS: -3.688%; Pks13 thioesterase: -10.52%; PfKRS1: 1.011%.
[O-][S+](Cc1c(F)cccc1Cl)Cc1nnnn1C1CC1 (centres undefined) gave ClpP1P2: -8.222%; MtTrpRS: -4.744%; Pks13 thioesterase: -0.2063%; PfKRS1: 2.698%.
CCCc1nc(C)cc(N2CCC3(CCC(=O)N(CCOC)C3)CC2)n1 gave ClpP1P2: 2.6%; MtTrpRS: 1.509%; Pks13 thioesterase: -22%; PfKRS1: 6.435%.
Cc1cccc(CN2CCC3(CCCN(C(=O)NC(C)C)C3)C2=O)n1 (centres undefined) gave ClpP1P2: 8.259%; MtTrpRS: -3.108%; Pks13 thioesterase: -29.94%; PfKRS1: 3.727%.
Cn1c(C2CC2)nc2c1CCN(Cc1nc3ccccc3s1)C2 gave ClpP1P2: -21.73%; MtTrpRS: 1.434%; Pks13 thioesterase: -23.92%; PfKRS1: -3.215%.

For reference, 3 entries once more:

{"compound": "CC(=O)NCCC1CCCCN1C(=O)c1cccc(CCC(C)(C)O)c1", "stereo": "centres undefined", "ClpP1P2": 13.05, "MtTrpRS": 3.484, "Pks13 thioesterase": -5.931, "PfKRS1": 0.8682}
{"compound": "CCC[C@@H]1CN(c2ncnc3sccc23)C[C@H]1C(=O)O", "ClpP1P2": 3.268, "MtTrpRS": -3.199, "Pks13 thioesterase": -33.23, "PfKRS1": 3.154}
{"compound": "O=S(=O)(c1cn[nH]c1)N1CCCC1c1cc[nH]n1", "stereo": "centres undefined", "ClpP1P2": -10.62, "MtTrpRS": -3.608, "Pks13 thioesterase": -6.237, "PfKRS1": 1.565}